Source: PubChem BioAssay AID1508597 (Cure First, 2020)

- Test: 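Survival screen with siRNA in ovarian cancer cells derived from patients, with or without rucaparib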 (primary screen)
- Cells: human ovarian carcinoma lines grown from tumours: OCI-P5x (papillary serous) and OCI-C5x (clear cell)
- Reagents: siRNA pool against human genes, 1.25 pmol siRNA per well
- Timing: 72 h or 96 h, depending on the cell culture
- Treatment: rucaparib 20 µM (about IC30) or vehicle, present until read-out
- Rucaparib or vehicle: Rucaparib
- Cell line: OCI-C5x (clear cell)
- Read-out: 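ATP luminescence measured at 72 or 96 h according to the culture, then normalised and expressed as percent viability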
- Direction: viability, normalised: higher = more viable cells remaining
- Active means: 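Active when normalised viability falls below 80 percent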
- Calls: active = viability under 80%; inactive = viability 80% or more
Shown is an unselected part of the about 2,100 reagents, under one of the conditions tested. 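Calls flag viability under 80% in either arm, not effects specific to rucaparib; the reference for percent is not stated.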 A number with no mark means an inactive call. The record does not give: the 100% reference.

PLCH2 (phospholipase C eta 2), technical replicate 1 scored viability, normalised (%) = 70.8 (active). For PLCH2 (phospholipase C eta 2), technical replicate 2, the values are viability, normalised (%) = 64.3 (active). PLCH2 (phospholipase C eta 2), technical replicate 3 scored viability, normalised (%) = 52.5 (active). For POLM (DNA polymerase mu), technical replicate 1 the deposit lists viability, normalised (%) = 48.2 (active). POLM (DNA polymerase mu), technical replicate 2 scored viability, normalised (%) = 55.7 (active). POLM (DNA polymerase mu), technical replicate 3 scored viability, normalised (%) = 64.6 (active).

CLDN15 (claudin 15), technical replicate 1 gave viability, normalised (%) = 45.2 (active). CLDN15 (claudin 15), technical replicate 2 scored viability, normalised (%) = 47.7 (active). CLDN15 (claudin 15), technical replicate 3 showed viability, normalised (%) = 37.3 (active). With TAF3 (TATA-box binding protein associated factor 3), technical replicate 1 the deposit lists viability, normalised (%) = 54.9 (active). TAF3 (TATA-box binding protein associated factor 3), technical replicate 2 showed viability, normalised (%) = 53.8 (active). TAF3 (TATA-box binding protein associated factor 3), technical replicate 3 showed viability, normalised (%) = 42 (active).

BRD1 (bromodomain containing 1), technical replicate 1 scored viability, normalised (%) = 48.8 (active). For BRD1 (bromodomain containing 1), technical replicate 2, the entry reads viability, normalised (%) = 32.9 (active). With BRD1 (bromodomain containing 1), technical replicate 3, the entry reads viability, normalised (%) = 33.4 (active). With MED4 (mediator complex subunit 4), technical replicate 1, the values are viability, normalised (%) = 47.7 (active). MED4 (mediator complex subunit 4), technical replicate 2 showed viability, normalised (%) = 31.5 (active). For MED4 (mediator complex subunit 4), technical replicate 3 the deposit lists viability, normalised (%) = 30.1 (active).

PRKACB (protein kinase cAMP-activated catalytic subunit beta), technical replicate 1 showed viability, normalised (%) = 57.7 (active). PRKACB (protein kinase cAMP-activated catalytic subunit beta), technical replicate 2 gave viability, normalised (%) = 74 (active). PRKACB (protein kinase cAMP-activated catalytic subunit beta), technical replicate 3 gave viability, normalised (%) = 45 (active). ACTR5 (actin related protein 5), technical replicate 1 gave viability, normalised (%) = 68.2 (active). ACTR5 (actin related protein 5), technical replicate 2 showed viability, normalised (%) = 59.2 (active). With ACTR5 (actin related protein 5), technical replicate 3, the entry reads viability, normalised (%) = 54.1 (active).

PRKCZ (protein kinase C zeta), technical replicate 1 scored viability, normalised (%) = 56.4 (active). PRKCZ (protein kinase C zeta), technical replicate 2 gave viability, normalised (%) = 32.8 (active). PRKCZ (protein kinase C zeta), technical replicate 3 gave viability, normalised (%) = 47.5 (active). For CERKL (CERK like autophagy regulator), technical replicate 1 the deposit lists viability, normalised (%) = 40.9 (active). CERKL (CERK like autophagy regulator), technical replicate 2 showed viability, normalised (%) = 25.3 (active). CERKL (CERK like autophagy regulator), technical replicate 3 showed viability, normalised (%) = 31.8 (active).

FYN (FYN proto-oncogene, Src family tyrosine kinase), technical replicate 1 scored viability, normalised (%) = 64.1 (active). For FYN (FYN proto-oncogene, Src family tyrosine kinase), technical replicate 2, the values are viability, normalised (%) = 44 (active). FYN (FYN proto-oncogene, Src family tyrosine kinase), technical replicate 3 showed viability, normalised (%) = 60.6 (active).

Part of the list above, set out differently.
gene symbol | technical replicate | viability, normalised (%)
PLCH2 (phospholipase C eta 2) | 1 | 70.8 (active)
PLCH2 (phospholipase C eta 2) | 2 | 64.3 (active)
PLCH2 (phospholipase C eta 2) | 3 | 52.5 (active)
POLM (DNA polymerase mu) | 1 | 48.2 (active)
POLM (DNA polymerase mu) | 2 | 55.7 (active)
